Measured values: article doi:10.1101/2025.08.05.667964
No constants are given. Whether binding was seen depends on the method and setting. Binding seen in cells or lysates may run through a third protein. Some entries that bind do so weakly or less than the wild type. Sequences can lack the tags named with a protein.

Sequences of proteins named here, by UniProt entry; tags and fusion partners are left off.
UniProt P45973: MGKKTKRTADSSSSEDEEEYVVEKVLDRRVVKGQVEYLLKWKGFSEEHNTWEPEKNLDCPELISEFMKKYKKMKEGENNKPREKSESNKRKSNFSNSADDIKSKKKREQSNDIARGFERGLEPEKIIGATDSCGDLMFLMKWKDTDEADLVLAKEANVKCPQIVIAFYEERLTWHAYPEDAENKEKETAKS

T1: GFP-CHAMP1 (human) (UniProt Q96JM3)
T1 sequence: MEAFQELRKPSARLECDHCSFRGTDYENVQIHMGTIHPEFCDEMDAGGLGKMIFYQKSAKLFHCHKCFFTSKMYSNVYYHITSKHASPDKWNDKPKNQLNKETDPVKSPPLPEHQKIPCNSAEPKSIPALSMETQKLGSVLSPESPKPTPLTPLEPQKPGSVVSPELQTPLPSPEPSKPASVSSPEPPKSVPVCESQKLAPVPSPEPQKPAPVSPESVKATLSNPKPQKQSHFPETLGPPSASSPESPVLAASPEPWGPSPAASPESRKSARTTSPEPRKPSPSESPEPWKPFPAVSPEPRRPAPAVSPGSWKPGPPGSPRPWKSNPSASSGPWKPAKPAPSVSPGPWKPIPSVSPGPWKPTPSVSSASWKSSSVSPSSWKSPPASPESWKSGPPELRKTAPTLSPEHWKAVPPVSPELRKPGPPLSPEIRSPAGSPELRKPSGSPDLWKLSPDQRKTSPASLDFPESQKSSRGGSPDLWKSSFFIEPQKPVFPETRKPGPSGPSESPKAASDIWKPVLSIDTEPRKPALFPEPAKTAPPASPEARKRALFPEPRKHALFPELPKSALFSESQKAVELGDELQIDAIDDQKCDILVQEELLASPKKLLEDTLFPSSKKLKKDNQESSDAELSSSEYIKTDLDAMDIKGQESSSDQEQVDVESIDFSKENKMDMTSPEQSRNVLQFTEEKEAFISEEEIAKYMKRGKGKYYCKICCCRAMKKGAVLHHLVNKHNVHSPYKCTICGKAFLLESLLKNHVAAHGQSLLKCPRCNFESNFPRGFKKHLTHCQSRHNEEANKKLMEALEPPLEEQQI


Target: T1, GFP-CHAMP1 (human)
Assay: co-IP

| binding | Molecule |
| --- | --- |
| binds | HP1α (from UniProt P45973 1-191) |
| binds | POGZ (protein, UniProt Q7Z3K3 1-1410) MADTDLFMECEEEELEPWQKISDVIEDSVVEDYNSVDKTTTVSVSQQPVSAPVPIAAHASVAGHLSTSTTVSSSGAQNSDSTKKTLVTLIANNNAGNPLVQQGGQPLILTQNPAPGLGTMVTQPVLRPVQVMQNANHVTSSPVASQPIFITTQGFPVRNVRPVQNAMNQVGIVLNVQQGQTVRPITLVPAPGTQFVKPTVGVPQVFSQMTPVRPGSTMPVRPTTNTFTTVIPATLTIRSTVPQSQSQQTKSTPSTSTTPTATQPTSLGQLAVQSPGQSNQTTNPKLAPSFPSPPAVSIASFVTVKRPGVTGENSNEVAKLVNTLNTIPSLGQSPGPVVVSNNSSAHGSQRTSGPESSMKVTSSIPVFDLQDGGRKICPRCNAQFRVTEALRGHMCYCCPEMVEYQKKGKSLDSEPSVPSAAKPPSPEKTAPVASTPSSTPIPALSPPTKVPEPNENVGDAVQTKLIMLVDDFYYGRDGGKVAQLTNFPKVATSFRCPHCTKRLKNNIRFMNHMKHHVELDQQNGEVDGHTICQHCYRQFSTPFQLQCHLENVHSPYESTTKCKICEWAFESEPLFLQHMKDTHKPGEMPYVCQVCQYRSSLYSEVDVHFRMIHEDTRHLLCPYCLKVFKNGNAFQQHYMRHQKRNVYHCNKCRLQFLFAKDKIEHKLQHHKTFRKPKQLEGLKPGTKVTIRASRGQPRTVPVSSNDTPPSALQEAAPLTSSMDPLPVFLYPPVQRSIQKRAVRKMSVMGRQTCLECSFEIPDFPNHFPTYVHCSLCRYSTCCSRAYANHMINNHVPRKSPKYLALFKNSVSGIKLACTSCTFVTSVGDAMAKHLVFNPSHRSSSILPRGLTWIAHSRHGQTRDRVHDRNVKNMYPPPSFPTNKAATVKSAGATPAEPEELLTPLAPALPSPASTATPPPTPTHPQALALPPLATEGAECLNVDDQDEGSPVTQEPELASGGGGSGGVGKKEQLSVKKLRVVLFALCCNTEQAAEHFRNPQRRIRRWLRRFQASQGENLEGKYLSFEAEEKLAEWVLTQREQQLPVNEETLFQKATKIGRSLEGGFKISYEWAVRFMLRHHLTPHARRAVAHTLPKDVAENAGLFIDFVQRQIHNQDLPLSMIVAIDEISLFLDTEVLSSDDRKENALQTVGTGEPWCDVVLAILADGTVLPTLVFYRGQMDQPANMPDSILLEAKESGYSDDEIMELWSTRVWQKHTACQRSKGMLVMDCHRTHLSEEVLAMLSASSTLPAVVPAGCSSKIQPLDVCIKRTVKNFLHKKWKEQAREMADTACDSDVLLQLVLVWLGEVLGVIGDCPELVQRSFLVASVLPGPDGNINSPTRNADMQEELIASLEEQLKLSGEHSESSTPRPRSSPEETIEPESLHQLFEGESETESFYGFEEADLDLMEI |
